For 5 molecules, binding results are on record in paper PMC5739603.

Protein sequences, listed by entry. Tags and fused reporters are not part of them.
UniProt P33993: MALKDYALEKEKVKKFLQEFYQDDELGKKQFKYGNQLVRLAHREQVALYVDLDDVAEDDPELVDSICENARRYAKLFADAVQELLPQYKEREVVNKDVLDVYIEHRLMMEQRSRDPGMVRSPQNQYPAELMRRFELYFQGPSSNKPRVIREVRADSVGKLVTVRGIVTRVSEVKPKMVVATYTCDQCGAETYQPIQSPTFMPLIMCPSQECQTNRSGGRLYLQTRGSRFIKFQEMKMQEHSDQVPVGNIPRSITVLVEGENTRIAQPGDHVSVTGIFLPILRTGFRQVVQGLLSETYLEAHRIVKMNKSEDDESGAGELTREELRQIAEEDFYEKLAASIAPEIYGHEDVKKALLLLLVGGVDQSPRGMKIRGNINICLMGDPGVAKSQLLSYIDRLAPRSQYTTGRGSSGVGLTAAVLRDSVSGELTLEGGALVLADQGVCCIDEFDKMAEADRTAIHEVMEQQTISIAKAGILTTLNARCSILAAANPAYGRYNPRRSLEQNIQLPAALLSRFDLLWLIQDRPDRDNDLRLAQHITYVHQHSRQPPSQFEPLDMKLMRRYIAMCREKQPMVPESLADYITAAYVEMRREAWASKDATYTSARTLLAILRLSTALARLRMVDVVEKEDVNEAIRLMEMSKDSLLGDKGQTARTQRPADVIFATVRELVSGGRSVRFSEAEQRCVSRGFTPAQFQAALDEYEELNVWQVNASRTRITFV

Results are given in words; binding and its absence hold for the method and conditions named. For some of these results: In cells and extracts the contact can be indirect. Some results given as binding are weak or reduced against the parent protein; the word gives no strength. For some of these results: Sequences can lack the tags named with a protein.

In experiment [1] the target is pBD-MCM7 (minichromosome maintenance complex component 7 fused to the bait domain) (UniProt P33993). Description: two-hybrid; pBD-MCM7 as bait, pAD-lamin B2 as prey; growth on SD-Leu-Trp-His-Ade, beta-galactosidase assay.
The target of experiment [2] is MCM7 (endogenous, A549) (human (endogenous in A549)) (UniProt P33993). The experiment can be described thus: co-IP; A549 cells with rising amounts (1, 2.5, 5 ug) of shLMNB2 or GFP-LMNB2; RB bound to MCM7 read by blot.
Experiment [3] deals with Flag-MCM7 (full length) (UniProt P33993). The experiment can be described thus: co-IP; lysates of A549 cells co-transfected with Flag-MCM7 and GFP-Lamin B2; IP with anti-GFP or anti-Flag, blot with GFP or FLAG antibody.
Experiment [4] shares this target. The experiment can be described thus: co-IP; A549 cells with FLAG-MCM7 (full length) or V5-ΔMCM7; lamin B2 of the lysate found by blot.
The target in experiment [5] is MCM7 (endogenous, A549) (human (endogenous in A549)) (UniProt P33993). Description: co-IP; A549 cell lysates (NP-40 lysis buffer), IP with anti-lamin B2 or anti-MCM7 antibody, protein G sepharose; endogenous proteins.
In experiment [6] the target is Flag-MCM7 (full length) (UniProt P33993). The experiment can be described thus: co-IP; A549 cells transfected with HA-RB and Flag-MCM7 or V5-ΔMCM7; IP with anti-Flag or anti-HA, blot with anti-HA, anti-FLAG or anti-V5.

B1: pAD-lamin B2 (lamin B2 fused to the activation domain) (protein, UniProt Q03252 1-620)
chain: MSPPSPGRRREQRRPRAAATMATPLPGRAGGPATPLSPTRLSRLQEKEELRELNDRLAHYIDRVRALELENDRLLLKISEKEEVTTREVSGIKALYESELADARRVLDETARERARLQIEIGKLRAELDEVNKSAKKREGELTVAQGRVKDLESLFHRSEVELAAALSDKRGLESDVAELRAQLAKAEDGHAVAKKQLEKETLMRVDLENRCQSLQEELDFRKSVFEEEVRETRRRHERRLVEVDSSRQQEYDFKMAQALEELRSQHDEQVRLYKLELEQTYQAKLDSAKLSSDQNDKAASAAREELKEARMRLESLSYQLSGLQKQASAAEDRIRELEEAMAGERDKFRKMLDAKEQEMTEMRDVMQQQLAEYQELLDVKLALDMEINAYRKLLEGEEERLKLSPSPSSRVTVSRATSSSSGSLSATGRLGRSKRKRLEVEEPLGSGPSVLGTGTGGSGGFHLAQQASASGSVSIEEIDLEGKFVQLKNNSDKDQSLGNWRIKRQVLEGEEIAYKFTPKYILRAGQMVTVWAAGAGVAHSPPSTLVWKGQSSWGTGESFRTVLVNADGEEVAMRTVKKSSVMRENENGEEEEEEAEFGEEDLFHQQGDPRTTSRGCYVM
Regarding B1, the binding result in experiment [1] is on record as “binds”.

B2: GFP-Lamin B2 (protein, UniProt Q03252 1-620)
chain: B1 chain
In the case of B2, the binding result (in experiment [2]; in the experiment with Flag-MCM7 (full length) [3]) was “binds” throughout.

B3: lamin B2 (endogenous, A549) (protein, UniProt Q03252 1-620)
chain: B1 chain
Consider B3, for which the binding result (with Flag-MCM7 (full length) [4]; in experiment [5]) was “binds” throughout.

B4: HA-RB (retinoblastoma protein) (protein, UniProt P06400 1-928)
chain: MPPKTPRKTAATAAAAAAEPPAPPPPPPPEEDPEQDSGPEDLPLVRLEFEETEEPDFTALCQKLKIPDHVRERAWLTWEKVSSVDGVLGGYIQKKKELWGICIFIAAVDLDEMSFTFTELQKNIEISVHKFFNLLKEIDTSTKVDNAMSRLLKKYDVLFALFSKLERTCELIYLTQPSSSISTEINSALVLKVSWITFLLAKGEVLQMEDDLVISFQLMLCVLDYFIKLSPPMLLKEPYKTAVIPINGSPRTPRRGQNRSARIAKQLENDTRIIEVLCKEHECNIDEVKNVYFKNFIPFMNSLGLVTSNGLPEVENLSKRYEEIYLKNKDLDARLFLDHDKTLQTDSIDSFETQRTPRKSNLDEEVNVIPPHTPVRTVMNTIQQLMMILNSASDQPSENLISYFNNCTVNPKESILKRVKDIGYIFKEKFAKAVGQGCVEIGSQRYKLGVRLYYRVMESMLKSEEERLSIQNFSKLLNDNIFHMSLLACALEVVMATYSRSTSQNLDSGTDLSFPWILNVLNLKAFDFYKVIESFIKAEGNLTREMIKHLERCEHRIMESLAWLSDSPLFDLIKQSKDREGPTDHLESACPLNLPLQNNHTAADMYLSPVRSPKKKGSTTRVNSTANAETQATSAFQTQKPLKSTSLSLFYKKVYRLAYLRLNTLCERLLSEHPELEHIIWTLFQHTLQNEYELMRDRHLDQIMMCSMYGICKVKNIDLKFKIIVTAYKDLPHAVQETFKRVLIKEEEYDSIIVFYNSVFMQRLKTNILQYASTRPPTLSPIPHIPRSPYKFPSSPLRIPGGNIYISPLKSPYKISEGLPTPTKMTPRSRILVSIGESFGTSEKFQKINQMVCNSDRVLKRSAEGSNPPKPLKKLRFDIEGSDEADGSKHLPGESKFQQKLAEMTSTRTRMQKQKMNDSMDTSNKEEK
Consider B4, for which the binding result with Flag-MCM7 (full length) [6] is reported as “binds”.

B5: RB (retinoblastoma protein) in A549 lysate (protein, UniProt P06400 1-928)
chain: B4 chain
For the molecule B5, the binding result in experiment [2] is “binds”.
